Tested on: sham and CHF rats (coronary artery ligation)
Assay: Hemodynamic, morphological and echocardiographic measurements in sham and CHF rats
Format: in vivo, rat
Details: mean ± SE
Experimental: In order to desensitize cardiac sympathetic afferents in rats, resiniferatoxin (RTX, 1 mg; Sigma Aldrich) was dissolved in 2 ml of ethanol and mixed with 18 ml of Tween in isotonic saline. RTX (50 μg/ml) was applied twice on the entire left and right ventricles with a swab just prior to coronary ligation. The dose of RTX was determined by preliminary experiments in which we found nearly complete ablation of TRPV1-expressing cardiac nerve endings on the surface of the rat heart for more than 10 weeks. Rat surgery was performed 9-11 weeks post-MI. Rats were anesthetized with urethane (800 mg/kg ip) and α-chloralose (40 mg/kg ip). Renal sympathetic nerve activity (RSNA) and cardiac sympathetic nerve activity (CSNA) were recorded for evaluating basal renal and cardiac sympathetic tone.
More specifically, we examined TRPV1 protein expression in cardiac nerve endings from vehicle and RTX-treated rats using immunofluorescence. Experiments were performed on male Sprague-Dawley rats weighing −400 to −500 g. […] Cardiac function in all experimental animals was measured 2 and 6 weeks after MI by echocardiography (VEVO 770, Visual Sonics, Inc.) as described in (Wang et al., J. Appl. Physiol. 2010; 108:1365-1375; Wang et al. 2, Am. J. Physiol. Regul. Integr. Comp. Physiol. 2012; 320:R1260-R1270; and Wang et al. 3, J. Physiol. 2010; 588:5033-5047). […]

C=C(C)[C@]12C[C@@H](C)[C@@]34O[C@](Cc5ccccc5)(O[C@@H]1[C@@H]3C=C(COC(=O)Cc1ccc(O)c(OC)c1)C[C@]1(O)C(=O)C(C)=C[C@@H]41)O2 [RTX, resiniferatoxin] was tested, and the Body weight (CHF + RTX (n = 25), epicardial RTX 50 μg/ml at coronary ligation, 9-11 weeks post-MI) was 440 ± 8 g and the Body weight (Sham + RTX (n = 20), epicardial RTX 50 μg/ml, 9-11 weeks) was 430 ± 7 g.

— US10729643B2, “Methods for administration and methods for treating cardiovascular diseases with resiniferatoxin” (priority 2013, dated 2020)
